No constants are given. Whether binding was seen depends on the method and setting. Some results given as binding are weak or reduced against the parent protein; the word gives no strength. Where a sequence is shown, tags or fusion partners need not be part of it.

Protein sequences, listed by entry. Tags and fused reporters are not part of them.
UniProt Q68Y81: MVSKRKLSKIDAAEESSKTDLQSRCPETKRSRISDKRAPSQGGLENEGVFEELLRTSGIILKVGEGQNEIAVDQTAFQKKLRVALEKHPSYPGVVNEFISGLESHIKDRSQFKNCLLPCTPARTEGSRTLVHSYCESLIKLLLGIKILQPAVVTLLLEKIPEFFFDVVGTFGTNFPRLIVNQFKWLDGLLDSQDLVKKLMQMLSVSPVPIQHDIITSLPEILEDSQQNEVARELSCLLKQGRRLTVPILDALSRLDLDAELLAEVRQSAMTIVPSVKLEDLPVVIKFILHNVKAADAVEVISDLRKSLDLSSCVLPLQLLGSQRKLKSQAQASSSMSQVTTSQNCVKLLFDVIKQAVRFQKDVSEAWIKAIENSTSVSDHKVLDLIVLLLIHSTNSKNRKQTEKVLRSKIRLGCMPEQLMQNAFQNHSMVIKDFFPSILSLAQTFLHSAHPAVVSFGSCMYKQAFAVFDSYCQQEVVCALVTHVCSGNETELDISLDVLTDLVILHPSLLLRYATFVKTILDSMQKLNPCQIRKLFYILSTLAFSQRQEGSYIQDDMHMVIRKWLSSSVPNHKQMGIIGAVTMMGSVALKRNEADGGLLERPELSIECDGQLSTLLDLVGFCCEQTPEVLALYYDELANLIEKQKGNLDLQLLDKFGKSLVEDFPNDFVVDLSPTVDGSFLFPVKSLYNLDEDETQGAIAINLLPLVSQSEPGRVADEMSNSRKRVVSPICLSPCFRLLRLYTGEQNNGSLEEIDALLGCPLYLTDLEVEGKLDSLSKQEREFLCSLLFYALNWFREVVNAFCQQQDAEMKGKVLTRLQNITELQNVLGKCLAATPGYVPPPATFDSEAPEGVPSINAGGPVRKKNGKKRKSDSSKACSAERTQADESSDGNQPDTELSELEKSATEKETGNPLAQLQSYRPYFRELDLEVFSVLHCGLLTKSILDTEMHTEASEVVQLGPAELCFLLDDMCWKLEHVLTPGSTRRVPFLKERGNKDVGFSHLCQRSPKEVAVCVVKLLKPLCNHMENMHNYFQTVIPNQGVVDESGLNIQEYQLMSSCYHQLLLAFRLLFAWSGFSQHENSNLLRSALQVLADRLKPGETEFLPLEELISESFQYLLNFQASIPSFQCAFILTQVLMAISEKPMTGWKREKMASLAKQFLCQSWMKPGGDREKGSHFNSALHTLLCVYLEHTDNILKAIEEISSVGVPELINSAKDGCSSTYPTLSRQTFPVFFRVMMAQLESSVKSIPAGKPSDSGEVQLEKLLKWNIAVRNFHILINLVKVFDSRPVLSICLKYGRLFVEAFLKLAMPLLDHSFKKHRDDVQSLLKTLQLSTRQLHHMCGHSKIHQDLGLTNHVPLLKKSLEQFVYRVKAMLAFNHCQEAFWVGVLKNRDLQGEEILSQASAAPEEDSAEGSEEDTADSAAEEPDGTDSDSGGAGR

This note sets out measurements from article PMC11358013.

For test [1], the target named is T1, Gallus gallus FANCI (untagged, from the co-expressed D2–I complex) (Gallus gallus) (UniProt B0I564).
T1 sequence: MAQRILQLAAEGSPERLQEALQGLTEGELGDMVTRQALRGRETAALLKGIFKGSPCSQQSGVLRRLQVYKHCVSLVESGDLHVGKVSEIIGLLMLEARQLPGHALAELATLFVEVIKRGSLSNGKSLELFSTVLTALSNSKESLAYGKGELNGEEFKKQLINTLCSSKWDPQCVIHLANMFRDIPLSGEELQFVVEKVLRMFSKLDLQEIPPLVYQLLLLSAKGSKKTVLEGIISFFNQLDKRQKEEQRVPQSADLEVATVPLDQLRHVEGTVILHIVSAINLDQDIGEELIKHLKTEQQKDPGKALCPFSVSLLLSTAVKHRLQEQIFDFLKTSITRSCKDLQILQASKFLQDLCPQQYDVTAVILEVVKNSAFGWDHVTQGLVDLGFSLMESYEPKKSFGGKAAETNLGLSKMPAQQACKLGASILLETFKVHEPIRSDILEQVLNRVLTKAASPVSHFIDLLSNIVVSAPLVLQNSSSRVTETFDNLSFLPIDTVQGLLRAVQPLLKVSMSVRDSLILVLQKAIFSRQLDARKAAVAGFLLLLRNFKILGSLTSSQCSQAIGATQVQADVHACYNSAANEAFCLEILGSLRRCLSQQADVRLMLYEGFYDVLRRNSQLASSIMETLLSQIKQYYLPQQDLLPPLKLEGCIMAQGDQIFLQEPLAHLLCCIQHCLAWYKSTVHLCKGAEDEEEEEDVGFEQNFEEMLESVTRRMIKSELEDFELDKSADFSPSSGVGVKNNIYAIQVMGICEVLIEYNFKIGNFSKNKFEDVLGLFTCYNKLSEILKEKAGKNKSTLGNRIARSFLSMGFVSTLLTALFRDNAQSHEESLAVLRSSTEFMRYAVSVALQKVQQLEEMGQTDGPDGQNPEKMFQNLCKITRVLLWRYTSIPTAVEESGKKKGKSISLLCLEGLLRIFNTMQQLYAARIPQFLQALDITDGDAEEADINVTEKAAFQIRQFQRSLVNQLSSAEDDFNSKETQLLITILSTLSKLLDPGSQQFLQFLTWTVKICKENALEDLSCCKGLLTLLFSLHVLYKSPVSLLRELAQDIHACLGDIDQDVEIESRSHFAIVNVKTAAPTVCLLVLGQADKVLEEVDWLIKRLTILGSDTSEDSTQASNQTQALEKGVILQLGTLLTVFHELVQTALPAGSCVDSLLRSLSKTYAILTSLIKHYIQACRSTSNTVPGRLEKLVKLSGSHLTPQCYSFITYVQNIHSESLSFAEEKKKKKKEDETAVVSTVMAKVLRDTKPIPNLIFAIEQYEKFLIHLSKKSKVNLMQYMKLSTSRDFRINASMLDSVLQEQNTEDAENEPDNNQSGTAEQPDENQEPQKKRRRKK
Briefly: cryo-EM structure; chicken D2–I with 44 bp linear dsDNA (oligos P1 and P7); same grid preparation as for ss–dsDNA; 20 mM HEPES pH 7.5, 75 mM NaCl, 1 mM TCEP; both purified.

The target of test [2] is T1, Gallus gallus FANCI (untagged, from the co-expressed D2–I complex) (Gallus gallus). Briefly: cryo-EM structure; 1 µM chicken D2–I with 3 µM ss–dsDNA (29 bp duplex flanked by 30 nt and 40 nt overhangs); 20 mM HEPES pH 7.5, 75 mM NaCl, 1 mM TCEP, 15 min at 22 °C; both purified.

As to “Gallus gallus FANCD2 (untagged, from the co-expressed D2–I complex) (from UniProt Q68Y81 1-1439)”, the binding result in test [1] and in test [2] was “binds” each time.
